The experiment is described as follows: qHTS Assay for Modulators of Lamin A Splicing. The settings on record: HeLa LMNA splicing GFP/RFP minigene ratio, 48 h. In a few lines:
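Read-out is the ratio of GFP to DsRed2 object intensity, acquired by 488 nm laser-scanning cytometry on HeLa lamin A-EGFP minigene reporter cells. Compound incubation 48 hrs at 37 °C in Opti-MEM with 2% FBS; DMSO 0.5% final.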

[1] abbreviates: measured here: GFP splicing reporter channel.
Where [2] appears, read: measured here: RFP viability control channel.

These results are taken from PubChem BioAssay AID1487 (National Center for Advancing Translational Sciences (NCATS), 2009).

The structures appear in SMILES notation. This is one part of the list. These are further read-outs of the screen, such as a control signal, another cell line or another target. No call is given for them. Compounds called inactive in the main read-out are mostly missing here. Potencies come from curve fits of mixed quality, noted in brackets.

With `CC1=C(c2ccc(C(C)C)cc2)S(=O)(=O)N=C1N1CCC(C(=O)NCc2ccco2)CC1`, the AC50 was 35.5 µM [falling, single point] under setting [1] and 22.4 µM [falling, single point] under setting [2].

`Cc1ccc(-n2c(CNc3ccc(F)cc3)nnc2SCC(N)=O)cc1`: the concentration at half-maximal activity (AC50) under setting [2] was 1.12 µM [falling, partial curve, poor fit].

With `COc1ccc(-n2ncc3c(N4CCN(Cc5ccccc5)CC4)ncnc32)cc1`, under setting [2], the AC50 is 2 µM [falling, partial curve].

On to `CN1CCN(C(=O)CCN2C(=O)/C(=C/c3ccccc3Cl)SC2=S)CC1`, for which the AC50 under setting [1] was 17.8 µM [falling, partial curve, poor fit] and the AC50 under setting [2] was 0.1 µM [falling, full curve, poor fit].

With `CC(C)CNC(=O)CSc1nnc(-c2ccc(Cl)cc2)n1N`, the AC50 under setting [2] is 1.78 µM [falling, partial curve, poor fit].

Take `COc1ccc(CCNc2ncnc3c2c(-c2ccccc2)cn3-c2cccc(Cl)c2)cc1OC`: the AC50 under setting [2] was 0.0141 µM [rising, full curve, poor fit].

With `Cc1cc(Nc2ccccc2)n(-c2nc3ccccc3[nH]2)n1`, the AC50 under setting [2] was 14.1 µM [rising, single point].

In the case of `CN(C)CCNC(=O)c1ccc2nc(Cc3ccccc3)oc2c1`, the AC50 under setting [2] was 0.501 µM [falling, full curve, poor fit].

For the molecule `COCCN1C(=O)N[C@@H](c2ccc(Br)cc2)C(C(=O)OC)=C1C`, the AC50 under setting [2] was 20 µM [rising, single point].

As to `Cc1ccc(NC(=O)c2ccc(CN3CCc4ccccc4C3)cc2)cc1`, the AC50 by setting is: under setting [1], 0.0316 µM [rising, full curve, poor fit]; under setting [2], 7.94 µM [rising, partial curve].

For `COc1ccc(C2C(C(=O)OC3CCCCC3)=C(C)Nc3nnnn32)c(OC)c1OC` (stereo not drawn), the AC50 under setting [1] was 10 µM [rising, single point].

`COc1ccc(C(=O)NCC(c2ccc(N(C)C)cc2)N2CCOCC2)cc1` (stereo not drawn): the AC50 under setting [2] is 12.6 µM [rising, partial curve].

`CCC(C)n1c(SCc2ccc(F)cc2Cl)nc2ccsc2c1=O` (stereo not drawn): the AC50 under setting [2] is 11.2 µM [rising, partial curve, poor fit].

As for `O=C(Cn1ccc2ccccc2c1=O)N1CCN(Cc2ccc3c(c2)OCO3)CC1`, the AC50 under setting [1] is 4.47 µM [rising, partial curve] and the AC50 under setting [2] is 11.2 µM [rising, partial curve].

On to `COc1cccc(/C=N/n2c(C)nc3ccccc3c2=O)c1O`, for which, under setting [2], the AC50 is 35.5 µM [rising, single point].

On to `CCOC(=O)N1CCN(C(=O)CSc2ccc(-c3ccccc3OC)nn2)CC1`, for which the AC50 under setting [2] is 0.0282 µM [falling, full curve, poor fit].

Regarding `COc1ccccc1N1CCN(c2ncc3c(n2)CCN(Cc2ccc(C)s2)C3)CC1`, the AC50 under setting [1] is 3.98 µM [rising, single point].

Regarding `N=c1c2c(n(Cc3ccc(Br)cc3)c3c1CCC3)CCCC2`, the AC50 is, setting by setting: under setting [1], 2 µM [rising, partial curve, poor fit]; under setting [2], 2.82 µM [rising, full curve].

Take `Cc1ccc(C(=O)Nc2nnc(-c3ccco3)o2)cc1`: under setting [2], the AC50 was 35.5 µM [rising, single point].

On to `CCCCCOc1ccc(OC(=O)c2ccncc2)cc1`, for which the AC50 under setting [1] was 12.6 µM [falling, partial curve].

For the molecule `Cn1c(SCC(=O)N/N=C/c2ccco2)nc2ccccc21`, the AC50 under setting [1] is 0.0891 µM [rising, full curve, poor fit].

As for `Cc1ccc(NC(=O)CN(C)C(=O)COc2ccc(C(=O)c3ccc(F)cc3)cc2)cc1`, the AC50 by setting is: under setting [1], 35.5 µM [rising, single point]; under setting [2], 35.5 µM [rising, single point].

Take `COc1ccc2[nH]c3c(=O)n(Cc4ccc(C(=O)NCC5CCCO5)cc4)c(=S)[nH]c3c2c1` (stereo not drawn): the AC50 is, setting by setting: under setting [1], 0.316 µM [falling, full curve, poor fit]; under setting [2], 0.501 µM [falling, full curve, poor fit].

Turning to `C/C(=N\NS(=O)(=O)c1ccccc1)c1ccc2c(c1)OCO2`, the AC50 under setting [2] is 0.00891 µM [falling, full curve, poor fit].

Turning to `CCc1cccc(NC(=O)Cn2c(-c3ccc(F)cc3)cc(C(C)=O)c2C)c1`, the AC50 under setting [2] is 14.1 µM [falling, single point].

On to `Cc1ccccc1Nc1nc(N)nc(CN2CCN(C(=O)c3ccccc3)CC2)n1`, for which, under setting [2], the half-maximal activity concentration (AC50) is 20 µM [falling, partial curve].

Regarding `CC(C)(C)NCC(O)c1cc(O)cc(O)c1` (stereo not drawn), under setting [2], the AC50 is 0.158 µM [rising, full curve, poor fit].

On to `CC(C)(C)c1csc(NC(=O)c2ccc(Cl)s2)n1`, for which the AC50 was 11.2 µM [rising, single point] under setting [1] and 17.8 µM [rising, partial curve] under setting [2].

In the case of `Nc1nc2nc(-c3cccs3)cc(C(F)(F)F)n2n1`, the AC50 under setting [1] is 0.501 µM [falling, full curve, poor fit].

As for `Cc1ccccc1N/N=C/c1ccc(C#N)cc1`, the AC50 under setting [2] is 35.5 µM [falling, single point].

Regarding `COC(=O)C12CCC3(SCCS3)C(C(=O)OC)(CCC13SCCS3)C2`, the AC50 under setting [2] is 3.55 µM [rising, full curve].

As for `COC(=O)c1ccccc1NS(=O)(=O)c1ccc(Cl)nc1`, the AC50 under setting [1] is 0.562 µM [falling, full curve] and the AC50 under setting [2] was 4.47 µM [falling, partial curve].

As for `CCc1cccc(C)c1NC(=O)CSc1nnc(-c2cc3cc(Br)ccc3o2)n1CC`, under setting [2], the AC50 was 14.1 µM [rising, single point].

Regarding `COc1ccc2c(c1)C1=NN(/C(C)=C/C(C)=O)C(c3ccc(F)cc3)C1CC2` (stereo not drawn), the AC50 under setting [2] was 11.2 µM [rising, partial curve].

With `CC(C)(C)c1cc(NC(=O)c2cccc(S(=O)(=O)N3CCOCC3)c2)no1`, the AC50 under setting [2] was 35.5 µM [rising, single point].

Turning to `CSc1ccc(NC(=O)/C=C/C(=O)O)cc1`, the AC50 under setting [2] is 35.5 µM [falling, single point].

As for `CC(NC(=O)c1ccco1)c1cccc2ccccc12` (stereo not drawn), under setting [2], the AC50 is 35.5 µM [rising, single point].

For `O=S(=O)(Cc1ccccc1)NCC1CCCN(Cc2cccc3nonc23)C1` (stereo not drawn), the AC50 under setting [2] was 0.0355 µM [falling, full curve, poor fit].

With `CC(NC(=O)NC12CC3CC(CC(C3)C1)C2)c1ccc2c(c1)OCO2` (stereo not drawn), under setting [2], the AC50 is 5.62 µM [falling, single point].

Turning to `Cc1cc(C(=O)N/N=C/c2cc(Br)ccc2OC(=O)c2ccc(Br)cc2)n[nH]1`, the AC50 under setting [2] is 20 µM [rising, partial curve, poor fit].

Turning to `Cc1c(-c2ccn[nH]2)cc(NC(=O)c2ccc(Cl)cc2)c(=O)n1N`, the AC50 is 2.51 µM [falling, full curve] under setting [1] and 1.41 µM [falling, full curve] under setting [2].

Turning to `Cc1nc(C)n(CC(O)COc2ccc3cc(Br)ccc3c2)n1` (stereo not drawn), the AC50 under setting [2] is 20 µM [rising, single point].

`Cn1ncc(Cl)c1C(=O)NCc1ccc(Cl)cc1`: the AC50 is 10 µM [rising, partial curve] under setting [1] and 12.6 µM [rising, partial curve] under setting [2].

As for `CC1(C)CC2CC(C)(CN2c2ncnc3ccc(Br)cc23)C1` (stereo not drawn), the AC50 is 11.2 µM [rising, single point] under setting [1] and 11.2 µM [rising, single point] under setting [2].

As to `CCOCCCn1c(SCC(=O)Nc2ccc(F)cc2)nc2c(sc3ccccc32)c1=O`, the AC50 by setting is: under setting [1], 11.2 µM [falling, partial curve, poor fit]; under setting [2], 11.2 µM [falling, partial curve].

With `CCC(C(=O)Nc1cc(-c2cn3cccnc3n2)ccc1C)c1ccccc1` (stereo not drawn), under setting [1], the AC50 is 3.55 µM [rising, full curve].

Take `Cc1cc(C)cc(NC(=O)CN2C(=O)c3ccccc3Sc3ccc(C(=O)N4CCCC4)cc32)c1`: the AC50 under setting [2] was 0.178 µM [falling, full curve, poor fit].

On to `COc1ccc(CCn2c(-c3ccco3)nc3ccccc3c2=O)cc1OC`, for which the AC50 is 4.47 µM [rising, full curve, poor fit] under setting [1] and 8.91 µM [rising, partial curve] under setting [2].

On to `CC(=O)OCC(=O)[C@@]1(O)CCC2C3C[C@H](C)C4=CC(=O)C=CC4(C)C3C(O)CC21C` (stereo partly drawn), for which the AC50 under setting [1] is 17.8 µM [rising, partial curve, poor fit] and the AC50 under setting [2] is 0.891 µM [falling, full curve, poor fit].

On to `CCOC(=O)c1c(NC(=O)COC(=O)C2CC2C)sc(C)c1C` (stereo not drawn), for which the AC50 under setting [1] is 0.891 µM [rising, full curve, poor fit].

`O=C(CN1C(=O)CCc2cc(Br)ccc21)Nc1ccc(OC(F)(F)F)cc1`: under setting [1], the AC50 is 0.0708 µM [falling, full curve, poor fit].

For the molecule `Cc1ccc(-n2nnnc2SCn2nnc3ccccc3c2=O)c(C)c1`, the AC50 under setting [2] was 2.82 µM [rising, full curve].

`O=C(NC(=S)N1CCN(c2ccc(Cl)cc2[N+](=O)[O-])CC1)c1ccco1`: the AC50 under setting [2] was 14.1 µM [rising, single point].

As for `CNc1ccc(Br)cc(C(=O)/C=C/c2cccc(Cl)c2Cl)c1=O`, the AC50 under setting [2] was 15.8 µM [falling, single point].

Take `COC(=O)[C@@H](NC(=O)c1ccc(OC2CCN(Cc3ccccn3)CC2)cc1)C(C)C`: under setting [2], the AC50 was 3.98 µM [falling, full curve, poor fit].

As to `COc1ccccc1N1CCN(S(=O)(=O)c2cc(C(=O)Nc3ccc(Oc4ccccc4)cc3)ccc2F)CC1`, the AC50 is 0.562 µM [falling, full curve] under setting [1] and 0.355 µM [falling, full curve, poor fit] under setting [2].

As to `Cn1cc(/C=N\NC(=O)C2COc3ccccc3O2)c2ccccc21` (stereo not drawn), the AC50 under setting [2] is 2 µM [rising, full curve].
